# In paper PMC8469489, “Effect of Lactic Acid Bacteria on the Pharmacokinetics and Metabolism of Ginsenosides in Mice” (Pharmaceutics, 2021):
# How the values were obtained:
# Caco-2 cells = conditions: cited from earlier work
# [1] = Caco-2 permeability (apical to basal); conditions: human, Caco-2, pH 7.4
structure (smiles),measurement,setting,value
CC(C)NCC(O)COc1ccc(CC(N)=O)cc1 (centres unmarked) [atenolol],"Papp,AB reference values",Caco-2 cells,0.38–0.45 × 10^−6 cm/s
same,Papp A→B at 1 h,[1],0.46 ± 0.14 ×10⁻⁶ cm/s
